The text below walks through data of the supplement of paper PMC7024190.

Where “and” joins values, the source holds several entries; their conditions need not be identical. Equal values may be shown once. This is one part of the list. Single values are uncertain here, since repeats match poorly.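 Human embryonic kidney cells were transiently transfected with a plasmid bearing a Renilla luciferase gene under the HSV-TK promoter. This first-round screen tests roughly ten thousand compounds for ones that increase reporter output.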

For this experiment, the system named is HEK 293FT. The experiment is described as follows: log relative Renilla luciferase luminescence (reporter expression vs reference, reference not stated) (log (base not stated)); higher = higher recombinant reporter expression. The conditions noted are these: 10 µM; time after transfection 48 h.
As to `CC(NC(C)(C)C)C(=O)c1cccc(Cl)c1` (stereo not given), the log is -0.239 and 0.00632.

`COC(=O)N1CCN(C(=O)Cc2ccc(Cl)c(Cl)c2)C(CN2CCCC2)C1` (stereo not given): the log was -0.0839.

For `CC(C)CC(N(C)C)C1(c2ccc(Cl)cc2)CCC1` (stereo not given), the log is -0.00677.

With `NC(=O)OCCCc1ccccc1`, the log was -0.0215.

Consider `CC[C@@H](C(N)=O)N1CCCC1=O`, for which the log is -0.164.

For the compound `C[C@]12CC[C@H]3[C@@H](CCC4=CC(=O)CC[C@@]43C)[C@@H]1CC[C@@H]2O` [Testosterone], the log was 0.075.

On to `Oc1cc2c(cc1O)[C@H]1c3ccccc3CN[C@@H]1CC2`, for which the log was 0.015.

For `CCN(CC)CCOC(=O)C(O)(c1ccccc1)c1ccccc1`, the log was -0.0839.

As to `c1cncc([C@@H]2CCCN2)c1` [Nornicotine], the log was determined as 0.0864.

In the case of `C[C@]12CCC(=O)C[C@@H]1CC[C@@H]1[C@@H]2CC[C@@]2(C)[C@H]1CC[C@]2(C)O` [Mestanolone], the log is -0.0753.

For the compound `CN1CC[C@]23CCCC[C@H]2[C@H]1Cc1ccc(O)cc13`, the log stood at 0.0675.

Take `C[N+]1(CCC(C(N)=O)(c2ccccc2)c2ccccc2)CCCCC1`: the log came to 0.00338.

For `CNCC(O)c1ccc(O)cc1` (stereo not given), the log was -0.105.

As for `C[C@]12C/C(=C/O)C(=O)C[C@@H]1CC[C@@H]1[C@@H]2CC[C@@]2(C)[C@H]1CC[C@]2(C)O` [Oxymetholone], the log was -0.0927.

With `Cc1nnc2n1-c1ccc(Cl)cc1C(c1ccccc1)=NC2` [Alprazolam], the log amounted to 0.337.
